The values that follow come from the supplement of paper PMC4635364.

Structures can show the parent of a compound that is named as a salt. The list shows a part of the results. This data set is noisy: repeats of one test often differ as much as different tests do.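 ReNCell VM, a human fetal ventral-midbrain neural progenitor line, was differentiated without mitogens. Blinded raters scored images stained for doublecortin (early neurons) or tyrosine hydroxylase (dopaminergic neurons) against untreated wells (0 = no change). Scores were averaged across repeats and both raters, and compounds averaging 2 or more were selected as hits for retesting.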

Assay [1] has as its system ReNCell VM. In words: neuronal differentiation score (DCX+ cell fraction vs untreated, manual image score) (score (-3 to 3)); higher = more neuronal differentiation. As to conditions: 2 uM, 2 weeks.
Assay [2] has as its system ReNCell VM. In words: dopaminergic neuron differentiation score (TH+ cell fraction vs untreated, manual image score) (score (0 to 3)); higher = more TH+ dopaminergic neuron differentiation. As to conditions: 2 uM, 4 weeks, BDNF 10 ng/ml + GDNF 10 ng/ml.

Turning to `Clc1ccc(CCCOCCCN2CCCCC2)cc1`, the neuronal differentiation score with ReNCell VM [1] (library: Tocriscreen) was inactive: 0. The “dopaminergic neuron differentiation score” value in the assay with ReNCell VM [2] (library: Tocriscreen) was inactive: 0.
Take `COC(=O)C[C@H]1C(C)(C)[C@@H](O)[C@@H]2CC3=C4C=C(OC)O[C@@H](c5ccoc5)[C@]4(C)CCC3[C@@]1(C)C2=O` (stereo partly drawn) [3-DEOXO-3beta-HYDROXYMEXICANOLIDE 16-ENOL ETHER]: the neuronal differentiation score in the assay with ReNCell VM [1] (library: Spectrum) is inactive: 0. In the assay with ReNCell VM [2] (library: Spectrum), the “dopaminergic neuron differentiation score” value was inactive: 0.
`CC(C)c1nc(N(C)S(C)(=O)=O)nc(-c2ccc(F)cc2)c1/C=C/[C@@H](O)C[C@@H](O)CC(=O)O`: in the assay with ReNCell VM [1] (library: Spectrum), the neuronal differentiation score was inactive: 0. In addition, the “dopaminergic neuron differentiation score” value in the assay on ReNCell VM [2] (library: Spectrum) was inactive: 0.
As for `O=c1c(O)c(-c2ccccc2)oc2cc(O)cc(O)c12`, the neuronal differentiation score with ReNCell VM [1] (library: Spectrum) was inactive: 0. For the same compound, the “dopaminergic neuron differentiation score” value in the assay on ReNCell VM [2] (library: Spectrum) is inactive: 0.
With `C=CCn1c(=O)n([C@@H]2O[C@H](CO)[C@@H](O)[C@H]2O)c2nc(N)[nH]c(=O)c21`, the neuronal differentiation score in the assay on ReNCell VM [1] (library: Tocriscreen) was inactive: 0. Moreover, the “dopaminergic neuron differentiation score” value with ReNCell VM [2] (library: Tocriscreen) is inactive: 0.
For `CN1CCN2c3ccccc3Cc3ccccc3C2C1` (stereo not drawn) [Mianserine hydrochloride], in the assay on ReNCell VM [1] (library: Prestwick), the neuronal differentiation score was inactive: 0. Further, in the assay on ReNCell VM [2] (library: Prestwick), the “dopaminergic neuron differentiation score” value is inactive: 0.
For the compound `C[C@@H]1C/C=C/C=C/C=C/C=C/[C@H](O[C@@H]2O[C@H](C)[C@@H](O)[C@H](N)[C@@H]2O)C[C@@H]2O[C@](O)(C[C@@H](O)C[C@H]3O[C@@H]3/C=C/C(=O)O1)C[C@H](O)[C@H]2C(=O)O`, the neuronal differentiation score in the assay on ReNCell VM [1] (library: Spectrum) is inactive: 0. Besides, in the assay with ReNCell VM [2] (library: Spectrum), the “dopaminergic neuron differentiation score” value is inactive: 0.
`C[C@@H](O[C@H]1OCCN(Cc2n[nH]c(=O)[nH]2)[C@H]1c1ccc(F)cc1)c1cc(C(F)(F)F)cc(C(F)(F)F)c1` [Aprepitant]: the neuronal differentiation score with ReNCell VM [1] (library: Prestwick) was inactive: 0. Also, in the assay with ReNCell VM [2] (library: Prestwick), the “dopaminergic neuron differentiation score” value was inactive: 0.
For the compound `C[C@@H]1C[C@H]2[C@@H]3C[C@H](F)C4=CC(=O)C=C[C@]4(C)[C@@]3(F)[C@@H](O)C[C@]2(C)[C@@]1(O)C(=O)CO`, the neuronal differentiation score with ReNCell VM [1] (library: Spectrum) is inactive: 0. For the same compound, in the assay on ReNCell VM [2] (library: Spectrum), the “dopaminergic neuron differentiation score” value was inactive: 0.
In the case of `C1CNCCN1`, the neuronal differentiation score in the assay with ReNCell VM [1] (library: Spectrum) was inactive: 0. Besides, the “dopaminergic neuron differentiation score” value in the assay with ReNCell VM [2] (library: Spectrum) is inactive: 0.
Consider `Cc1onc(-c2ccccc2Cl)c1C(=O)N[C@@H]1C(=O)N2[C@@H]1SC(C)(C)[C@@H]2C(=O)O`, for which the neuronal differentiation score in the assay with ReNCell VM [1] (library: Spectrum) was inactive: 0. Also, the “dopaminergic neuron differentiation score” value in the assay on ReNCell VM [2] (library: Spectrum) was inactive: 0.
As for `Fc1ccc(C(OCCCc2cnc[nH]2)c2ccc(F)cc2)cc1`, the neuronal differentiation score in the assay on ReNCell VM [1] (library: LOPAC) is inactive: 0. Moreover, in the assay with ReNCell VM [2] (library: LOPAC), the “dopaminergic neuron differentiation score” value was inactive: 1.
Consider `COc1cc(NC(=O)c2ccccn2)ccc1Cl`, for which, in the assay on ReNCell VM [1] (library: Tocriscreen), the neuronal differentiation score is inactive: 0. Besides, the “dopaminergic neuron differentiation score” value in the assay on ReNCell VM [2] (library: Tocriscreen) is inactive: 0.
In the case of `c1ccc(-c2[nH]ncc2-c2ccnc3ccccc23)nc1`, in the assay on ReNCell VM [1] (library: Tocriscreen), the neuronal differentiation score is inactive: 0. In the assay with ReNCell VM [2] (library: Tocriscreen), the “dopaminergic neuron differentiation score” value is active: 3.
As for `CC(CCc1ccc(O)cc1)NCCc1ccc(O)c(O)c1` (stereo not drawn), the neuronal differentiation score in the assay with ReNCell VM [1] (library: Spectrum) was inactive: 0. Further, the “dopaminergic neuron differentiation score” value in the assay with ReNCell VM [2] (library: Spectrum) is inactive: 0.
As for `Cc1nc2c(O)cccc2c(=O)[nH]1`, in the assay with ReNCell VM [1] (library: Tocriscreen), the neuronal differentiation score was inactive: 0. In addition, in the assay with ReNCell VM [2] (library: Tocriscreen), the “dopaminergic neuron differentiation score” value was inactive: 0.
For the compound `CC(C)NCC(O)COc1ccc(CC(N)=O)cc1` (stereo not drawn), the neuronal differentiation score in the assay with ReNCell VM [1] (library: Spectrum) is inactive: 0. Moreover, the “dopaminergic neuron differentiation score” value with ReNCell VM [2] (library: Spectrum) was inactive: 0.
Turning to `COc1cc(/C=C/C(=O)CC(=O)/C=C/c2ccc(O)c(OC)c2)ccc1O` [curcumin], in the assay with ReNCell VM [1] (library: Natural), the neuronal differentiation score is inactive: 0. Further, the “dopaminergic neuron differentiation score” value in the assay with ReNCell VM [2] (library: Natural) is inactive: 0.
Regarding `COc1cc(O)c(C(=O)/C=C/c2ccc(OC)c(O)c2)c(OC)c1`, in the assay with ReNCell VM [1] (library: Spectrum), the neuronal differentiation score is inactive: 0. The “dopaminergic neuron differentiation score” value with ReNCell VM [2] (library: Spectrum) was inactive: 0.
For `Oc1c(Cl)cc(Cl)c2cccnc12` [Chloroxine], the neuronal differentiation score in the assay with ReNCell VM [1] (library: Prestwick) was inactive: 0. The “dopaminergic neuron differentiation score” value in the assay with ReNCell VM [2] (library: Prestwick) was inactive: 0.
For `Cc1nc2sccn2c(=O)c1CCN1CCC(=C(c2ccccc2)c2ccc(F)cc2)CC1` [Diacylglycerol kinase inhibitor I], the neuronal differentiation score in the assay on ReNCell VM [1] (library: LOPAC) is inactive: 0. Moreover, the “dopaminergic neuron differentiation score” value in the assay with ReNCell VM [2] (library: LOPAC) is inactive: 0.
For `CCCCC(O)c1ccccc1` (stereo not drawn), the neuronal differentiation score in the assay with ReNCell VM [1] (library: Spectrum) was inactive: 0. In addition, the “dopaminergic neuron differentiation score” value in the assay on ReNCell VM [2] (library: Spectrum) is inactive: 0.
On to `CC(=O)C(C)=O` [2,3-Butanedione], for which the neuronal differentiation score in the assay on ReNCell VM [1] (library: LOPAC) is inactive: 0. The “dopaminergic neuron differentiation score” value in the assay with ReNCell VM [2] (library: LOPAC) is inactive: 0.
On to `CC(O)(C(=O)Nc1ccc(S(=O)(=O)c2ccccc2)cc1)C(F)(F)F` (stereo not drawn), for which the neuronal differentiation score in the assay with ReNCell VM [1] (library: Tocriscreen) was inactive: 0. For the same compound, the “dopaminergic neuron differentiation score” value in the assay on ReNCell VM [2] (library: Tocriscreen) was inactive: 0.
With `C=CC(C1=CC(=O)C(OC)=CC1=O)c1ccccc1` (stereo not drawn), the neuronal differentiation score in the assay on ReNCell VM [1] (library: Spectrum) was inactive: 0. In addition, the “dopaminergic neuron differentiation score” value in the assay on ReNCell VM [2] (library: Spectrum) was inactive: 0.
Consider `CCN(CCCCOC(=O)c1ccc(OC)c(OC)c1)C(C)Cc1ccc(OC)cc1` (stereo not drawn), for which, in the assay with ReNCell VM [1] (library: Spectrum), the neuronal differentiation score is inactive: 0. In the assay on ReNCell VM [2] (library: Spectrum), the “dopaminergic neuron differentiation score” value was inactive: 0.
As to `CC(=O)Nc1ccccc1C(=O)C(=O)O` [(2-acetylamino-phenyl)-oxo-acetic acid], the neuronal differentiation score in the assay on ReNCell VM [1] (library: Natural) was inactive: 0. In addition, the “dopaminergic neuron differentiation score” value in the assay with ReNCell VM [2] (library: Natural) is inactive: 0.
Turning to `CC1(C)O[C@@H]2C[C@H]3[C@@H]4C[C@H](F)C5=CC(=O)C=C[C@]5(C)[C@H]4[C@@H](O)C[C@]3(C)[C@]2(C(=O)CO)O1`, the neuronal differentiation score in the assay on ReNCell VM [1] (library: Spectrum) was inactive: 0. In addition, the “dopaminergic neuron differentiation score” value in the assay with ReNCell VM [2] (library: Spectrum) was inactive: 0.
Consider `CN1CCC(Nc2ncc3ncnc(Nc4ccc(F)c(Cl)c4)c3n2)CC1` [BIBX 1382 dihydrochloride], for which the neuronal differentiation score in the assay with ReNCell VM [1] (library: Tocriscreen) is inactive: 0. The “dopaminergic neuron differentiation score” value in the assay on ReNCell VM [2] (library: Tocriscreen) was inactive: 0.
Consider `CCCCCCOc1ccccc1C(N)=O`, for which the neuronal differentiation score in the assay on ReNCell VM [1] (library: Spectrum) was inactive: 0. Moreover, in the assay with ReNCell VM [2] (library: Spectrum), the “dopaminergic neuron differentiation score” value is inactive: 0.
For `CC(C)COC(=O)OCN1C(=O)CN(CCN2CC(=O)N(COC(=O)OCC(C)C)C(=O)C2)CC1=O` [Sobuzoxane], the neuronal differentiation score in the assay on ReNCell VM [1] (library: LOPAC) was inactive: 0. Besides, the “dopaminergic neuron differentiation score” value in the assay with ReNCell VM [2] (library: LOPAC) was inactive: 0.
`Cc1cc2c(cc1Cl)N(C(=O)Nc1ccc(Oc3cccnc3C)nc1)CC2`: in the assay on ReNCell VM [1] (library: LOPAC), the neuronal differentiation score is inactive: 0. The “dopaminergic neuron differentiation score” value with ReNCell VM [2] (library: LOPAC) is inactive: 0.
As to `O=C(O)c1cc(=O)cc(C(=O)O)o1` [Chelidonic acid], the neuronal differentiation score in the assay with ReNCell VM [1] (library: Phytochemical) was inactive: 0. Besides, in the assay on ReNCell VM [2] (library: Phytochemical), the “dopaminergic neuron differentiation score” value was inactive: 0.
On to `OCC(O)CN1CCN(c2ccccc2)CC1` (stereo not drawn), for which the neuronal differentiation score in the assay on ReNCell VM [1] (library: Spectrum) was inactive: 0. For the same compound, the “dopaminergic neuron differentiation score” value with ReNCell VM [2] (library: Spectrum) is inactive: 0.
